In patent US20230348562A1, “Proinsulin Peptides for Type I Diabetes” (King's College London, priority 2019, published 2023):

The sequences below were run on human beta cell granules (assay: Mass spectrometry of C-peptide fragments in human beta cell granules).

% identification in human samples (n = 6), 100%:
EAEDLQVGQV (listed as Homo sapiens) [SEQ ID NO: 33, C-peptide fragment C1 to C10 found in human beta cell granules]
EAEDLQVGQVE (listed as Homo sapiens) [SEQ ID NO: 34, C-peptide fragment C1 to C11 found in human beta cell granules]
EAEDLQVGQVEL (listed as Homo sapiens) [SEQ ID NO: 35, C-peptide fragment C1 to C12 found in human beta cell granules]
EAEDLQVGQVELG (listed as Homo sapiens) [SEQ ID NO: 36, C-peptide fragment C1 to C13 found in human beta cell granules]
EAEDLQVGQVELGG (listed as Homo sapiens) [SEQ ID NO: 37, C-peptide fragment C1 to C14 found in human beta cell granules]
EAEDLQVGQVELGGGPGAGS (listed as Homo sapiens) [SEQ ID NO: 38, C-peptide fragment C1 to C20 found in human beta cell granules]
EAEDLQVGQVELGGGPGAGSLQ (listed as Homo sapiens) [SEQ ID NO: 39, C-peptide fragment C1 to C22 found in human beta cell granules]
EAEDLQVGQVELGGGPGAGSLQP (listed as Homo sapiens) [SEQ ID NO: 40, C-peptide fragment C1 to C23 found in human beta cell granules]
EAEDLQVGQVELGGGPGAGSLQPL (listed as Homo sapiens) [SEQ ID NO: 41, C-peptide fragment C1 to C24 found in human beta cell granules]
EAEDLQVGQVELGGGPGAGSLQPLA (listed as Homo sapiens) [SEQ ID NO: 42, C-peptide fragment C1 to C25 found in human beta cell granules]
EAEDLQVGQVELGGGPGAGSLQPLAL (listed as Homo sapiens) [SEQ ID NO: 43, C-peptide fragment C1 to C26 found in human beta cell granules]
EAEDLQVGQVELGGGPGAGSLQPLALE (listed as Homo sapiens) [SEQ ID NO: 44, C-peptide fragment C1 to C27 found in human beta cell granules]
EAEDLQVGQVELGGGPGAGSLQPLALEG (listed as Homo sapiens) [SEQ ID NO: 45, C-peptide fragment C1 to C28 found in human beta cell granules]
EAEDLQVGQVELGGGPGAGSLQPLALEGS (listed as Homo sapiens) [SEQ ID NO: 46, C-peptide fragment C1 to C29 found in human beta cell granules]
EAEDLQVGQVELGGGPGAGSLQPLALEGSL (listed as Homo sapiens) [SEQ ID NO: 47, C-peptide fragment C1 to C30 found in human beta cell granules]
EAEDLQVGQVELGGGPGAGSLQPLALEGSLQ (listed as Homo sapiens) [SEQ ID NO: 48, C-peptide fragment C1 to C31 found in human beta cell granules]
REAEDLQVGQVELGGGPGAGSLQPL (listed as Homo sapiens) [SEQ ID NO: 31, C-peptide fragment C−1 to C24 found in human beta cell granules]
REAEDLQVGQVELGGGPGAGSLQPLALEGSLQ (listed as Homo sapiens) [SEQ ID NO: 32, C-peptide fragment C−1 to C31 found in human beta cell granules]
